Data: paper PMC12098869 (Nature Communications, 2025)

Legend:
[1] = general procedure: Fmoc solid-phase peptide synthesis; conditions: whole synthesis; for isolated yield: scale of the general procedure 50 µmol
peptide synthesis = conditions: whole synthesis, thioether ring, sequence written open
biotinylated ADO = assay: RaPID mRNA display selection, enrichment by next-generation sequencing; design: species or system human; conditions: percentage enrichment in the final (sixth) selection round
[2] = thioether ring, sequence written open

CP6-L8d-Phe-Ser
isolated yield [1, 2]: 6.7% | isolated mass [1, 2]: 8.2 mg

YRIIRVFRSWVLCPC
isolated yield (peptide synthesis): 0.5%

YWTLNEGFPRRGRLC
isolated yield (peptide synthesis): 12%

CP6-L8d-Lys-Ser
isolated mass [1]: 9.0 mg | isolated yield [1]: 7.1%

CC[C@H](C)[C@@H]1NC(=O)[C@H](CCCNC(=N)N)NC(=O)[C@H](Cc2ccc(O)cc2)NC(=O)CSC[C@@H](C(=O)N2CCC[C@H]2C(=O)N[C@@H](CS)C(N)=O)NC(=O)[C@H](CC(C)C)NC(=O)[C@H](C(C)C)NC(=O)[C@H](Cc2c[nH]c3ccccc23)NC(=O)[C@H](CO)NC(=O)[C@H](CCCNC(=N)N)NC(=O)[C@H](Cc2ccccc2)NC(=O)[C@H](C(C)C)NC(=O)[C@H](CCCNC(=N)N)NC(=O)[C@H]([C@@H](C)CC)NC1=O [CP2] ({CH2CO}-YRIIRVFRSWVLCPC-NH2; thioether N-13; N-terminus and C-terminus assumed)
Enrichment (%) (biotinylated ADO): 4.3%

CC(C)C[C@@H]1NC(=O)[C@H](CCCNC(=N)N)NC(=O)CNC(=O)[C@H](CCCNC(=N)N)NC(=O)[C@H](CCCNC(=N)N)NC(=O)[C@@H]2CCCN2C(=O)[C@H](Cc2ccccc2)NC(=O)CNC(=O)[C@H](CCC(=O)O)NC(=O)[C@H](CC(N)=O)NC(=O)[C@H](CC(C)C)NC(=O)[C@H]([C@@H](C)O)NC(=O)[C@H](Cc2c[nH]c3ccccc23)NC(=O)[C@H](Cc2ccc(O)cc2)NC(=O)CSC[C@@H](C(N)=O)NC1=O [CP3] ({CH2CO}-YWTLNEGFPRRGRLC-NH2; thioether N-15; N-terminus and C-terminus assumed)
Enrichment (%) (biotinylated ADO): 2.6%

YTVSTTWLGTHRQC
isolated yield (peptide synthesis): 13%

CP6-L8d-Gly-Ser
isolated yield [1, 2]: 4.3% | isolated mass [1, 2]: 5.0 mg

For some assays here: Where a sequence shows no end group, the ends are not given. Where a SMILES comes first, the peptide text is derived from it. Bridges are numbered along the chain shown (N, C = ends).
